No constants are given. Whether binding was seen depends on the method and setting. Some binding calls cover weakened binding; strength is not graded here.
Columns and labels:
[1] = biological target: B7-1-Fc (R&D Systems Cat #140-B1) (UniProt P33681); experiment: SPR (Biacore X100); B7-1-Fc injected over molecule held on immobilised lysozyme
[2] = biological target: B7-1-Fc (R&D Systems Cat #140-B1) (UniProt P33681); experiment: SPR (Biacore X100); Fab-VLDx1 (LC) held on immobilised lysozyme, B7-1-Fc injected at 25, 12.5, 6.25, 3.125, 1.56 (and 0) ug/ml according to the legend and text
[3] = biological target: B7-1-Fc (R&D Systems Cat #140-B1) (UniProt P33681); experiment: SPR; B7-1-Fc injected over molecule held on immobilised lysozyme
[4] = biological target: B7-1-Fc (R&D Systems Cat #140-B1) (UniProt P33681); experiment: SPR (Biacore X100); Fab-VLD captured on a biotin-lysozyme surface, B7-1-Fc as analyte; binding level plotted as % of Rmax against analyte concentration, linear axis 0-30 ug/ml

Measured: binding

B1: D1.3 Fab-VLDx1 (LC) (bispecific antibody)
heavy: EVKLQESGPGLVAPSQSLSITCTVSGFSLTGYGVNWVRQPPGKGLEWLGMIWGDGNTDYNSALKSRLSISKDNSKSQVFLKMNSLHTDDTARYYCARERDYRLDYWGQGTTVTVSSASTKGPSVFPLAPSSKSTSGGTAALGCLVKDYFPEPVTVSWNSGALTSGVHTFPAVLQSSGLYSLSSVVTVPSSSLGTQTYICNVNHKPSNTKVDKRVEPKSCAAAGLGGHHHHHHGAAEQKLISEEDL
light: DIELTQSPASLSASVGETVTITCRASGNIHNYLAWYQQKQGKSPQLLVYYTTTLADGVPSRFSGSGSGTQYSLKINSLQPEDFGSYYCQHFWSTPRTFGGGTKLELKRTVAAPSVFIFPPSDEQLKSGTASVVCLLNNFYPREAKVQWKVDNALQSGNSQESVTEQDSKDSTYSLSSTLTLSKADYEKHKVYACEVTHQGLSSPVTKSFNRGECSGGGGSGGGGSGGGGSGGGGSKAMHVAQPAVVLASSRGIASFVCEYASPGKYTEVRVTVLRQADSQVTEVCAATYMTGNELTFLDDSICTGTSSGNQVNLTIQGLRAMDTGLYICKVELMYPPPYYLGIGNGTQIYVIDPEPSPDSN
binds: all assays above

From patent US20210040177A1
